{
  "source": "patent US20260364186A1",
  "about": "“Chemical Conjugates, Compositions, and Methods of Preparation and Use Thereof” (Transfection Holdings Limited, priority 2022, published 2026)",
  "tested_on": "NZM11 (BRAF V600E mutant metastatic melanoma) cells",
  "assay": "Sulforhodamine B (SRB) assay of viability / proliferation, auranofin conjugates (Example 8)",
  "type": "cell-based, human",
  "procedure": "FIG. 8: Effect of 136 and 137 (auranofin conjugates) on viability of NZM11 melanoma cells. Cells were incubated with 136 and 137 at 10 μM final concentration and kept at 37 °C for 48 hours. Pantothenic acid (PA), CJ-15,801, and biotin were tested at 200 μM final concentration. […] Two batches of auranofin were tested at 10 μM final concentration.\nFIG. 9: The viability data from FIG. 8 was normalised to the treatment plate and DMSO control and plotted as a percentage of cell growth. Individual data points represent technical replicates. Curve indicates non-linear regression slope, which allows determination of IC50 values.\nMaterials and methods: NZM11 cells were cultured in MEMα media with an initial count of 1020 cells/μL. The cells were then diluted to get 25 cells per μL and 200 μL of this suspension (5000 cells per well), dispensed into 96 well plates and left to settle for 24 hours. 10 mM stock solutions of 136, 137, and auranofin were diluted with 1% FBS MEMα media to give 10 nM, 30 nM, 100 nM, 300 nM, 1 μM, 3 μM, 10 μM, 30 μM and 100 μM solutions. After 24 hours the media was removed from the 96 well plates. To individual wells 200 μL of each dilution were dispensed in triplicate for three groups (136, 137, and auranofin): 1% FBS MEMα media only (DMSO control), 10 nM, 30 nM, 100 nM, 300 nM, 1 μM, 3 μM, 10 μM, 30 μM and 100 μM. The cells were incubated at 37 °C, 5% 02 and 5% CO2 for 48 hours.\nIn order to test the potency of 136 and 137, the IC50 values were calculated for these auranofin conjugates. For analysis of the treatment plate (Tz) a SRB assay was utilised. For this assay, 50 μL of 50% (w/v) ice-cold trichloroacetic acid (TCA) was added to each well. To achieve this, 5 g of TCA was made up to 10 mL with milliQ H2O. This was cooled on ice. Incubation was carried out for 1 hour at 4 °C to fix cells. TCA and media were removed from cells. Five milliQ washes were carried out and the plate was left to air dry. Next, 50 μL of 0.4% SRB solution (prepared in 1% acetic acid) was added to each well and incubated for 10 minutes at room temperature. The SRB solution was removed and five milliQ washes were carried out. Then, 100 μL of 10 mM Tris solution was added to each well, and the dye was solubilised. Absorbance at 515 nm was read on plate reader. Data was normalized to Tz plate, as per NCI60 screening method (https://dtp.cancer.gov/discovery_development/nci-60/methodology.htm).",
  "note": "Values joined by “and” are separate entries in the source; they are usually repeats but may differ in a detail not shown here. Equal values may be shown once. For at least one compound, name, drawing or mass did not settle the structure.",
  "data": [
    {"smiles": "CC[P+](CC)(CC)[Au-][S]c1ccc(NC(=O)/C=C/NC(=O)[C@@H]2OC(C)(C)OCC2(C)C)cc1", "note": "[Compound 136, (R,E)-((4-(3-(2,2,5,5-tetramethyl-1,3-dioxane-4-carboxamido)acrylamido)phenyl)thio) (triethyl-phosphaneyl) Gold (I)]", "values": [
      {"measurement": "reduction on viability, as compared to auranofin itself", "setting": "10 μM, 48 hours", "result": "more than 95%"},
      {"measurement": "effect of CJ-15,801/138 on activity", "setting": "138 20 times more concentrated (200 μM)", "result": "not affected"},
      {"measurement": "IC50", "setting": "NZM11, 48 hours, SRB assay", "result": "1940 nM and ~2900 nM"},
      {"measurement": "potency, in words", "setting": "compared with 137", "result": "even greater potency"},
      {"measurement": "effect of biotin and pantothenic acid on activity", "setting": "vitamins 20 times more concentrated (200 μM)", "result": "not affected"}
    ]}
  ]
}
